These are yes or no findings as the source states them, for the method shown. For some assays here: Binding seen in cells or lysates may run through a third protein. Some results given as binding are weak or reduced against the parent protein; the word gives no strength.
target: RHEB1•mGppNHp (human) (UniProt Q15382); assay: fluorescence polarisation; increasing concentrations of RA/RB domains as MBP fusions (0.002–300 μM) added to mGppNHp-bound RAS proteins (1 μM); 30 mM Tris-HCl pH 7.4, 100 mM NaCl, 5 mM MgCl2, 3 mM DTT; quadratic ligand-binding equation; both purified

By UniProt entry, the sequences of proteins in these tests, tags left out. Residues count along the entry.
UniProt P50749, residues 176-264: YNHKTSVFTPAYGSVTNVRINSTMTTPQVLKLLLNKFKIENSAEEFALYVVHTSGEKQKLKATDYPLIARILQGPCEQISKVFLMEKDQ
UniProt Q86WH2, residues 79-187: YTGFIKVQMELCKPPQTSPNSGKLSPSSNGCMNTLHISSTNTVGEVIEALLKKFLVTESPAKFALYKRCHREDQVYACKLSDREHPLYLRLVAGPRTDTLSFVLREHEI
UniProt Q5EBH1, residues 200-358: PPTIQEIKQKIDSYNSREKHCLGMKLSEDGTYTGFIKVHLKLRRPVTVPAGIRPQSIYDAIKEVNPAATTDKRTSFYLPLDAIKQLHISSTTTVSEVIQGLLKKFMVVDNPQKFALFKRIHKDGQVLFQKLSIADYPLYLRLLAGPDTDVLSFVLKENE
UniProt Q6ZTQ3, residues 218-306: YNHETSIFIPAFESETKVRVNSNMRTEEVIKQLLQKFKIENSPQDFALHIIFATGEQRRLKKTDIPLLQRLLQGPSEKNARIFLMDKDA
UniProt Q9H2L5, residues 174-262: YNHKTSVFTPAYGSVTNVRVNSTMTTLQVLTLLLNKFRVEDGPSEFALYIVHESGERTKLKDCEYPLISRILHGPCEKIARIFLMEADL
UniProt Q02833, residues 6-89: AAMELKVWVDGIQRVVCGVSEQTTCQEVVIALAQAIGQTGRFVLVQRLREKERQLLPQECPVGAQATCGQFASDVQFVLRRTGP
UniProt O75901, residues 25-119: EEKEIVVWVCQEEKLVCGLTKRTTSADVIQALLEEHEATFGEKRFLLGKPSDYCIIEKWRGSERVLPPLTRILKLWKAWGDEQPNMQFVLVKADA
UniProt Q92963: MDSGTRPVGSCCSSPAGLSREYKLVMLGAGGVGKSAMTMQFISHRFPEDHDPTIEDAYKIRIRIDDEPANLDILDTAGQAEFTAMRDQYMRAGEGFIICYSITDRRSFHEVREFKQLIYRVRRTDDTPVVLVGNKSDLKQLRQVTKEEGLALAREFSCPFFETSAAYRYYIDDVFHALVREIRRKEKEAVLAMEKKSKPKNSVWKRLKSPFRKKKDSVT

Substance	binding
CRAF RB domain, MBP fusion (from UniProt P04049 51-131) (domain or fragment)	binds
RASSF2 RA domain, MBP fusion (from UniProt P50749 176-264) (domain or fragment)	binds weakly
RASSF3 RA domain, MBP fusion (from UniProt Q86WH2 79-187) (domain or fragment)	binds weakly
RASSF5 RA domain, His-tagged MBP fusion (from UniProt Q5EBH1 200-358) (domain or fragment)	binds weakly
RASSF6 RA domain, MBP fusion (from UniProt Q6ZTQ3 218-306) (domain or fragment)	binds weakly

Continued, values first:

binding	Substance
binds weakly	RASSF4 RA domain, MBP fusion (from UniProt Q9H2L5 174-262) (domain or fragment)
binds weakly	RASSF7 RA domain, His-tagged MBP fusion (from UniProt Q02833 6-89) (domain or fragment)

target: RASSF9 RA domain, His-tagged MBP fusion (human) (UniProt O75901); assay: pull-down; 20 μg His-tagged MBP-RASSF RA domains coupled to Ni-NTA beads, 200 μg lysate of transfected HEK 293T cells, 30 min at 4 °C; immunoblot anti-HA or anti-FLAG; only the target purified

Substance	binding
HA-tagged RIT1 (from UniProt Q92963 1-219)	binds

— publication PMC8163975
